In PMC10044245, “Comparative Evaluation of Existing and Rationally Designed Novel Antimicrobial Peptides for Treatment of Skin and Soft Tissue Infections” (Antibiotics, 2023):

Test: Langmuir-Blodgett compression isotherms
Details: π–A isotherm, 30 ± 1 °C, peptide mixed with E. coli model membranes

CC[C@H](C)[C@H](NC(=O)CNC(=O)[C@H](CCCCN)NC(=O)[C@H](Cc1ccc(O)cc1)NC(=O)[C@H](CS)NC(=O)[C@@H](NC(=O)[C@H](CCCCN)NC(=O)[C@H](Cc1ccccc1)NC(=O)[C@H](CS)NC(=O)[C@H](Cc1c[nH]c2ccccc12)NC(=O)[C@@H](N)CCCNC(=N)N)C(C)C)C(=O)N[C@@H](CS)C(=O)N[C@@H](Cc1ccc(O)cc1)C(=O)N[C@@H](CCCCN)C(=O)N[C@@H](CCCCN)C(=O)N[C@@H](CS)C(=O)N[C@@H](CCCCN)C(=O)O [RP556] (H-RWCFKVCYKGICYKKCK-OH; N-terminus and C-terminus assumed)
π Collapse: 43.6 mN/m

Where a SMILES comes first, the peptide text is derived from it.
